Source: PubChem BioAssay AID743454 (Peter MacCallum Cancer Centre, 2014)
The whole screen tested about 18,000 reagents; shown is a part drawn at random. Over the whole deposit, 450 (2.5%) got an active call. 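Single biological run; no consistent viability z cut-off exists, so the class columns, not z-scores, define the calls.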 Entries without a mark were called inactive.

Assay: 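Genes whose loss kills vorinostat-resistant colon cancer cells under vorinostat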 (primary screen)
Cells: human HCT116-VR colon cancer cells, selected for vorinostat resistance
Reagent: siRNA pool against human genes, 40 nM siRNA pool
Time to read-out: vorinostat for 24 h, read-out about 72 h after transfection
Conditions: vorinostat at 2.5 µM final
Measurement: 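Cell viability by CellTiter-Fluor and caspase 3/7 activity by luminescence, each scaled to mock wells per plate, duplicates averaged, then robust z-scored over all plates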
Reading the numbers: viability robust z-score: higher = more viable cells than screen typical; caspase robust z-score: higher = more caspase 3/7 activity than screen typical
Call rule: 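a knock-down is a hit when classed RV1 or RV2 for lowered viability, or CA1 or CA2 for caspase activation; those lethal without drug were dropped; hits were retested singly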

Depletion of AARS2 gave: viability hit class no change; caspase hit class no change; viability robust z-score 0.58; caspase robust z-score -0.7.
With knock-down of EPB41L3 the results were viability hit class no change; caspase hit class no change; viability robust z-score -1.31; caspase robust z-score -1.
After knock-down of FHDC1 the results were viability hit class no change; caspase hit class no change; viability robust z-score -1.25; caspase robust z-score 0.25.
Depletion of PSMB9 came out at: viability hit class no change; caspase hit class no change; viability robust z-score -0.9; caspase robust z-score 2.31.
After knock-down of FAM120B the results were viability hit class no change; caspase hit class no change; viability robust z-score 1; caspase robust z-score 1.04.
Silencing of AMY1A came out at: viability hit class no change; caspase hit class no change; viability robust z-score 0.8; caspase robust z-score -0.34.
For OR2A25, the entry reads viability hit class no change; caspase hit class no change; viability robust z-score -0.19; caspase robust z-score -0.78.
With knock-down of OR5AS1, the screen gave viability hit class no change; caspase hit class no change; viability robust z-score 0.94; caspase robust z-score -0.72.
For UBC the deposit lists viability hit class RV2 (reduced viability) (active); caspase hit class no change; viability robust z-score -6.8; caspase robust z-score -0.79.
Depletion of CNGB1 gave: viability hit class no change; caspase hit class no change; viability robust z-score 0.06; caspase robust z-score 2.44.
FBXO34 scored viability hit class no change; caspase hit class no change; viability robust z-score 0.15; caspase robust z-score 1.84.
Against AEBP2 the deposit lists viability hit class no change; caspase hit class no change; viability robust z-score -0.23; caspase robust z-score -0.88.
Knock-down of RASAL2 gave: viability hit class no change (active); caspase hit class CA2 (caspase activation); viability robust z-score -1.45; caspase robust z-score 5.75.
Silencing of DCAF1 came out at: viability hit class no change; caspase hit class no change; viability robust z-score -1.68; caspase robust z-score -0.25.
With knock-down of CDC42BPA the results were viability hit class no change; caspase hit class no change; viability robust z-score 1.45; caspase robust z-score 2.63.
With knock-down of GPR135, the record shows viability hit class no change; caspase hit class no change; viability robust z-score 1.78; caspase robust z-score 0.
After knock-down of CCT6A, the screen gave viability hit class no change; caspase hit class no change; viability robust z-score -1.6; caspase robust z-score 3.25.
Depletion of PLEKHA1 resulted in: viability hit class no change; caspase hit class no change; viability robust z-score 0.73; caspase robust z-score 0.6.
Silencing of GPR15LG came out at: viability hit class no change; caspase hit class no change; viability robust z-score 1.88; caspase robust z-score 0.52.
After knock-down of ERRFI1, the record shows viability hit class no change; caspase hit class no change; viability robust z-score -0.71; caspase robust z-score -0.37.
TLE3 showed viability hit class no change; caspase hit class no change; viability robust z-score 0.72; caspase robust z-score -0.37.
For IL23R, the entry reads viability hit class no change; caspase hit class no change; viability robust z-score 0.65; caspase robust z-score 0.
Depletion of RGS7BP gave: viability hit class no change; caspase hit class no change; viability robust z-score 0.02; caspase robust z-score 2.67.
Against PARVB, the entry reads viability hit class no change; caspase hit class no change; viability robust z-score -0.55; caspase robust z-score 0.12.
Silencing of MZF1 gave: viability hit class no change; caspase hit class no change; viability robust z-score -0.06; caspase robust z-score 0.6.
After knock-down of UPP1, the screen gave viability hit class no change; caspase hit class no change; viability robust z-score -0.11; caspase robust z-score -0.56.
Against DSTYK, the entry reads viability hit class no change; caspase hit class no change; viability robust z-score 0.49; caspase robust z-score -0.42.

Part of the list above, set out differently.
gene symbol	viability hit class	caspase hit class	viability robust z-score	caspase robust z-score
IL23R	no change	no change	0.65	0
RGS7BP	no change	no change	0.02	2.67
